{"source": "PubChem BioAssay AID2685", "about": "(National Center for Advancing Translational Sciences (NCATS), 2010)", "assay": "qHTS Assay for Lipid Storage Modulators in Drosophila S3 Cells;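 on cell number change: cells counted by Cell Tracker Red CMTPX staining in the red channel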", "conditions": "BODIPY lipid droplet fluorescence, 18-24 h; for cell number change: measured here: cell count max response, cells fed with added oleic acid", "method_in_brief": "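Laser-scanning cytometry quantifies lipid droplet accumulation (500–530 nm total intensity; droplet/cell object ratio) in oleic acid-fed (400 uM added) Drosophila S3 cells treated with a concentration series. 20 uM Triacsin C defined 100% inhibition.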", "key": {"[1]": {"conditions": "measured here: lipid fluorescence (Fed channel) AC50, cells fed with added oleic acid"}, "[2]": {"conditions": "measured here: cell number channel AC50, cells fed with added oleic acid"}}, "note": "The list shows a part of the results. Shown are side measurements of this screen, not its main read-out; they come without a call. Most of these compounds were active or inconclusive in the main read-out, so they are no random draw. Words in brackets tell the shape of the fitted curve; partial curves, single points and poor fits give uncertain potencies.", "data": [{"smiles": "Cc1ccc(-n2nc3c(=O)n(C(C)C(=O)NCc4ccco4)nc(C)c3c2C)cc1", "note": "(configuration not stated)", "values": [{"measurement": "cell number change", "result": 7.63, "unit": "%"}, {"measurement": "AC50", "setting": "[1]", "result": "6.51 µM [rising, single point]"}]}, {"smiles": "Cc1ccc(N2CC(C(=O)Nc3ccc(S(=O)(=O)Nc4nccs4)cc3)CC2=O)cc1C", "note": "(configuration not stated)", "values": [{"measurement": "cell number change", "result": -11.1, "unit": "%"}, {"measurement": "AC50", "setting": "[1]", "result": "0.291 µM [falling, partial curve, poor fit]"}]}, {"smiles": "COc1cccc(C(C2=C(O)CC(C)(C)CC2=O)C2C(=O)CC(C)(C)CC2=O)c1", "note": "(configuration not stated)", "values": [{"measurement": "cell number change", "result": -31.3, "unit": "%"}, {"measurement": "AC50", "setting": "[2]", "result": "2.59 µM [falling, full curve]"}, {"measurement": "AC50", "setting": "[1]", "result": "3.26 µM [falling, full curve]"}]}, {"smiles": "Cc1[nH]c2ccccc2c1C(=O)NS(=O)(=O)Nc1ccc(F)cc1", "values": [{"measurement": "AC50", "setting": "[2]", "result": "6.51 µM [falling, single point]"}, {"measurement": "AC50", "setting": "[1]", "result": "0.731 µM [rising, single point]"}]}, {"smiles": "NS(=O)(=O)c1ccc(CNC(=O)Cn2nc(C(F)F)cc2C(F)F)cc1", "values": [{"measurement": "cell number change", "result": 5.49, "unit": "%"}, {"measurement": "AC50", "setting": "[2]", "result": "7.31 µM [rising, single point]"}, {"measurement": "AC50", "setting": "[1]", "result": "6.51 µM [rising, partial curve, poor fit]"}]}, {"smiles": "CCc1nnc(NC(=O)CSc2nnc(Cc3ccc(OC)cc3)o2)s1", "values": [{"measurement": "cell number change", "result": -12.2, "unit": "%"}, {"measurement": "AC50", "setting": "[1]", "result": "0.184 µM [rising, full curve, poor fit]"}]}, {"smiles": "CN1CCN(CCCNC(=O)c2ccc(/C=C3\\Sc4ccccc4N(Cc4ccc(F)cc4)C3=O)cc2)CC1", "values": [{"measurement": "cell number change", "result": -28.7, "unit": "%"}, {"measurement": "AC50", "setting": "[1]", "result": "23.1 µM [falling, single point]"}]}, {"smiles": "COc1ccccc1-n1c(SCC(=O)NC2CCS(=O)(=O)C2)nc2ccccc2c1=O", "note": "(configuration not stated)", "values": [{"measurement": "cell number change", "result": 13, "unit": "%"}, {"measurement": "AC50", "setting": "[1]", "result": "6.51 µM [falling, single point]"}]}, {"smiles": "O=c1c2ccccc2nnn1CSc1nnc(C2COc3ccccc3O2)n1-c1ccccc1", "note": "(configuration not stated)", "values": [{"measurement": "cell number change", "result": -2.38, "unit": "%"}]}, {"smiles": "CCCN(CC(=O)Nc1ccccc1C)C(=O)c1ccc(-c2ccccc2)cc1", "values": [{"measurement": "cell number change", "result": -10.8, "unit": "%"}, {"measurement": "AC50", "setting": "[1]", "result": "3.66 µM [falling, full curve]"}]}, {"smiles": "Oc1ccc(-c2csc(Nc3ccccn3)n2)cc1O", "values": [{"measurement": "cell number change", "result": -58.5, "unit": "%"}, {"measurement": "AC50", "setting": "[2]", "result": "20.6 µM [falling, partial curve]"}, {"measurement": "AC50", "setting": "[1]", "result": "6.51 µM [falling, full curve, poor fit]"}]}, {"smiles": "O=S(=O)(Cc1ccccc1)N1CCN(c2ncccn2)CC1", "values": [{"measurement": "cell number change", "result": 20.5, "unit": "%"}]}, {"smiles": "CCOC(=O)Cn1c2c(c(=N)c3ccccc31)CCC2", "values": [{"measurement": "cell number change", "result": -97.7, "unit": "%"}, {"measurement": "AC50", "setting": "[2]", "result": "29.1 µM [falling, partial curve, poor fit]"}, {"measurement": "AC50", "setting": "[1]", "result": "29.1 µM [rising, single point]"}]}, {"smiles": "Cc1nc(CS(=O)(=O)c2ccc(Cl)cc2)sc1C(=O)O", "values": [{"measurement": "cell number change", "result": 16.8, "unit": "%"}, {"measurement": "AC50", "setting": "[2]", "result": "7.31 µM [rising, partial curve, poor fit]"}]}, {"smiles": "O=C(c1ccc(Cl)cc1)N(Cc1ccco1)C1CCS(=O)(=O)C1", "note": "(configuration not stated)", "values": [{"measurement": "cell number change", "result": 15.3, "unit": "%"}, {"measurement": "AC50", "setting": "[1]", "result": "5.8 µM [falling, full curve]"}]}, {"smiles": "CCOc1ccc(NS(=O)(=O)N(C)C)cc1", "values": [{"measurement": "cell number change", "result": -14.1, "unit": "%"}, {"measurement": "AC50", "setting": "[2]", "result": "0.13 µM [falling, full curve, poor fit]"}, {"measurement": "AC50", "setting": "[1]", "result": "3.26 µM [falling, partial curve, poor fit]"}]}, {"smiles": "O=C(O)C1C2CCC(O2)C1C(=O)NCCC1=CCCCC1", "note": "(configuration not stated)", "values": [{"measurement": "cell number change", "result": -157, "unit": "%"}]}, {"smiles": "N/C(=N\\OC(=O)CCCc1ccccc1)c1ccc(Br)cc1", "values": [{"measurement": "cell number change", "result": 12.3, "unit": "%"}, {"measurement": "AC50", "setting": "[1]", "result": "0.326 µM [rising, full curve, poor fit]"}]}, {"smiles": "Cc1ccc(NNC(=O)C(O)(c2cccc(C(F)(F)F)c2)c2cccc(C(F)(F)F)c2)cc1", "values": [{"measurement": "cell number change", "result": -78.6, "unit": "%"}, {"measurement": "AC50", "setting": "[2]", "result": "16.4 µM [falling, partial curve]"}, {"measurement": "AC50", "setting": "[1]", "result": "18.4 µM [falling, partial curve]"}]}, {"smiles": "Cc1cc(-c2ccc(C(C)C)c(S(=O)(=O)N3CC(=O)Nc4ccccc43)c2)on1", "values": [{"measurement": "cell number change", "result": -19.9, "unit": "%"}, {"measurement": "AC50", "setting": "[1]", "result": "6.51 µM [falling, single point]"}]}, {"smiles": "CSCC[C@H](NC(=O)Nc1ccc(S(N)(=O)=O)cc1)C(=O)O", "values": [{"measurement": "cell number change", "result": -29.8, "unit": "%"}, {"measurement": "AC50", "setting": "[2]", "result": "0.0291 µM [falling, full curve, poor fit]"}, {"measurement": "AC50", "setting": "[1]", "result": "3.26 µM [falling, full curve]"}]}, {"smiles": "CCn1c2ccccc2c2cc(NC(=O)c3ccc(Br)o3)ccc21", "values": [{"measurement": "cell number change", "result": 64.3, "unit": "%"}]}, {"smiles": "CCOC(=O)C1C(c2ccccc2O)NC(=O)NC1(O)C(F)(F)F", "note": "(configuration not stated)", "values": [{"measurement": "cell number change", "result": -18.3, "unit": "%"}, {"measurement": "AC50", "setting": "[1]", "result": "29.1 µM [falling, single point]"}]}, {"smiles": "COC(=O)c1ccc(NC(=O)c2cccc(N3C(=O)CCC3=O)c2)cc1", "values": [{"measurement": "cell number change", "result": 8, "unit": "%"}]}, {"smiles": "CC1C(=O)N2CCCc3cc(S(=O)(=O)NCc4ccc(F)cc4)cc1c32", "note": "(configuration not stated)", "values": [{"measurement": "AC50", "setting": "[1]", "result": "1.84 µM [rising, partial curve]"}]}, {"smiles": "O=C(COc1ccc(Cl)cc1Cl)NCCCNC(=O)c1cnccn1", "values": [{"measurement": "cell number change", "result": 11.8, "unit": "%"}]}, {"smiles": "O=C(COC(=O)CCc1ccc(S(=O)(=O)N2CCOCC2)cc1)NC(=O)NC1CCCCC1", "values": [{"measurement": "cell number change", "result": -5.74, "unit": "%"}, {"measurement": "AC50", "setting": "[1]", "result": "2.91 µM [falling, single point]"}]}, {"smiles": "Cc1onc(-c2ccccc2Cl)c1C(=O)NC(=S)NCCc1ccccc1", "values": [{"measurement": "cell number change", "result": -12.6, "unit": "%"}, {"measurement": "AC50", "setting": "[2]", "result": "0.116 µM [falling, full curve, poor fit]"}, {"measurement": "AC50", "setting": "[1]", "result": "29.1 µM [rising, single point]"}]}, {"smiles": "CCC(C)NC(=O)C1=CCN(S(=O)(=O)c2ccc(C)cc2)CC1", "note": "(configuration not stated)", "values": [{"measurement": "cell number change", "result": -13.4, "unit": "%"}]}, {"smiles": "Cc1onc(-c2ccccc2Cl)c1C(=O)Nc1ccccc1O", "values": [{"measurement": "cell number change", "result": 7.14, "unit": "%"}, {"measurement": "AC50", "setting": "[1]", "result": "6.51 µM [falling, single point]"}]}, {"smiles": "O=C(COC(=O)/C=C/c1ccc(S(=O)(=O)N2CCc3ccccc32)cc1)NC1CCS(=O)(=O)C1", "note": "(configuration not stated)", "values": [{"measurement": "cell number change", "result": 38.2, "unit": "%"}]}, {"smiles": "CC(NC(=O)CNC(=O)c1sc2ccccc2c1Cl)c1cccnc1", "note": "(configuration not stated)", "values": [{"measurement": "cell number change", "result": -19, "unit": "%"}, {"measurement": "AC50", "setting": "[1]", "result": "5.8 µM [falling, full curve]"}]}, {"smiles": "CCC(C)n1c(S(=O)(=O)O)nc2ccccc21", "note": "(configuration not stated)", "values": [{"measurement": "cell number change", "result": -41.4, "unit": "%"}, {"measurement": "AC50", "setting": "[2]", "result": "0.651 µM [falling, partial curve, poor fit]"}, {"measurement": "AC50", "setting": "[1]", "result": "1.46 µM [falling, full curve]"}]}, {"smiles": "Cc1noc(C)c1CSCC(=O)OCC(=O)Nc1sccc1C#N", "values": [{"measurement": "AC50", "setting": "[2]", "result": "0.103 µM [falling, full curve, poor fit]"}, {"measurement": "AC50", "setting": "[1]", "result": "1.84 µM [falling, partial curve]"}]}, {"smiles": "CCOc1cc(/C=N/NC(=O)c2ccncc2)ccc1OC(=O)c1ccc([N+](=O)[O-])cc1", "values": [{"measurement": "cell number change", "result": -40.2, "unit": "%"}, {"measurement": "AC50", "setting": "[2]", "result": "25.9 µM [falling, partial curve, poor fit]"}]}, {"smiles": "CC(=O)Nc1ccc2c(COC(=O)CC3Sc4ccccc4NC3=O)cc(=O)oc2c1", "note": "(configuration not stated)", "values": [{"measurement": "cell number change", "result": 105, "unit": "%"}, {"measurement": "AC50", "setting": "[2]", "result": "18.4 µM [rising, single point]"}]}]}
